Results from US20230276831A1, “Food/Beverage Article” (Kikkoman Corporation, priority 2020, published 2023).
The source gives many values for each of these; only a part stands here.

Test system: Lactobacillus rennini DSM 20253
Assay: Antimicrobial action of licoricidin in liquid seasoning (1), lactic acid bacteria A
Assay type: cell-based
Set-up: key: A: The bacterial count decreases to less than 10% of the bacterial count of the control group.; B: The bacterial count decreases to 10% or more and less than 50% of the bacterial count of the control group.; C: The bacterial count decreases to 50% or more and less than 100% of the bacterial count of control group.; D: The bacterial count is the same as the bacterial count of the control group
Procedure: Commercially available whole soybean soy sauce (produced by Kikkoman Corporation) was electrodialyzed and then concentrated under reduced pressure to obtain soy sauce at a salt concentration of 0% (w/v) and an alcohol concentration of 0% (v/v). Then, salt and/or alcohol was added to the above-mentioned obtained soy sauce, and the mixture was heat-treated to produce soy sauces at salt concentrations and alcohol concentrations shown in the following Table 5. The pHs of the soy sauces were 4.9 to 5.0. […]
Licoricidin (produced by ChemFaces) was added to each of the liquid seasonings produced in the above-mentioned (1) to concentrations of 1 ppm, 5 ppm, 10 ppm, 25 ppm, and 50 ppm. Lactic acid bacteria described in the following Table 9 were then added to 10^6 to 10^7 cells/mL and cultured at 30° C. for 7 days. After the culture, the number of lactic acid bacteria was measured using the GAM agar medium “Nissui”. Liquid seasoning to which licoricidin was not added was used as a control group, and the antimicrobial activity was evaluated in comparison with the number of lactic acid bacteria in the control group. The evaluation was performed using the criterion shown below.
• A: The bacterial count decreases to less than 10% of the bacterial count of the control group. • B: The bacterial count decreases to 10% or more and less than 50% of the bacterial count of the control group. • C: The bacterial count decreases to 50% or more and less than 100% of the bacterial count of control group. • D: The bacterial count is the same as the bacterial count of the control group.

With `COc1c(CC=C(C)C)c(O)cc2c1C[C@H](c1ccc(O)c(CC=C(C)C)c1O)CO2` [Licoricidin, 4-[(R)-7-hydroxy-5-methoxy-6-(3-methyl-2-butenyl)chroman-3-yl]-2-(3-methyl-2-butenyl)-1,3-benzenediol] the Antimicrobial activity (Bonito stock (salt 0.2% (w/v), alcohol 0.15% (v/v), pH 6.1), licoricidin 1 ppm) was “C (The bacterial count decreases to 50% or more and less than 100% of the bacterial count of control group.)”, the Antimicrobial activity (Bonito stock (salt 0.2% (w/v), alcohol 0.15% (v/v), pH 6.1), licoricidin 5 ppm) was “A (The bacterial count decreases to less than 10% of the bacterial count of the control group.)” and the Antimicrobial activity (Bonito stock (salt 0.2% (w/v), alcohol 0.15% (v/v), pH 6.1), licoricidin 10 ppm) was “A (The bacterial count decreases to less than 10% of the bacterial count of the control group.)”. The Antimicrobial activity (Bonito stock (salt 0.2% (w/v), alcohol 0.15% (v/v), pH 6.1), licoricidin 25 ppm) was “A (The bacterial count decreases to less than 10% of the bacterial count of the control group.)”, the Antimicrobial activity (Bonito stock (salt 0.2% (w/v), alcohol 0.15% (v/v), pH 6.1), licoricidin 50 ppm) was “A (The bacterial count decreases to less than 10% of the bacterial count of the control group.)” and the Antimicrobial activity (Japanese seasoned soup stock (salt 3% (w/v), alcohol 0.4% (v/v), pH 5.5), licoricidin 1 ppm) was “D”. For the same compound, the Antimicrobial activity (Japanese seasoned soup stock (salt 3% (w/v), alcohol 0.4% (v/v), pH 5.5), licoricidin 5 ppm) was “B (The bacterial count decreases to 10% or more and less than 50% of the bacterial count of the control group.)”, the Antimicrobial activity (Japanese seasoned soup stock (salt 3% (w/v), alcohol 0.4% (v/v), pH 5.5), licoricidin 10 ppm) was “A (The bacterial count decreases to less than 10% of the bacterial count of the control group.)” and the Antimicrobial activity (Japanese seasoned soup stock (salt 3% (w/v), alcohol 0.4% (v/v), pH 5.5), licoricidin 25 ppm) was “A (The bacterial count decreases to less than 10% of the bacterial count of the control group.)”. For the same compound, the Antimicrobial activity (Japanese seasoned soup stock (salt 3% (w/v), alcohol 0.4% (v/v), pH 5.5), licoricidin 50 ppm) was “A (The bacterial count decreases to less than 10% of the bacterial count of the control group.)”, the Antimicrobial activity (Sauce (salt 5.3% (w/v), alcohol 0.8% (v/v), pH 5.0), licoricidin 1 ppm) was “D” and the Antimicrobial activity (Sauce (salt 5.3% (w/v), alcohol 0.8% (v/v), pH 5.0), licoricidin 5 ppm) was “D”. For the same compound, the Antimicrobial activity (Sauce (salt 5.3% (w/v), alcohol 0.8% (v/v), pH 5.0), licoricidin 10 ppm) was “A (The bacterial count decreases to less than 10% of the bacterial count of the control group.)”, the Antimicrobial activity (Sauce (salt 5.3% (w/v), alcohol 0.8% (v/v), pH 5.0), licoricidin 25 ppm) was “A (The bacterial count decreases to less than 10% of the bacterial count of the control group.)” and the Antimicrobial activity (Sauce (salt 5.3% (w/v), alcohol 0.8% (v/v), pH 5.0), licoricidin 50 ppm) was “A (The bacterial count decreases to less than 10% of the bacterial count of the control group.)”. For the same compound, the Antimicrobial activity (Soy sauce, salt 0% (w/v), alcohol 0% (v/v), licoricidin 1 ppm) was “D”, the Antimicrobial activity (Soy sauce, salt 0% (w/v), alcohol 0% (v/v), licoricidin 5 ppm) was “B (The bacterial count decreases to 10% or more and less than 50% of the bacterial count of the control group.)” and the Antimicrobial activity (Soy sauce, salt 0% (w/v), alcohol 0% (v/v), licoricidin 10 ppm) was “B (The bacterial count decreases to 10% or more and less than 50% of the bacterial count of the control group.)”. For the same compound, the Antimicrobial activity (Soy sauce, salt 0% (w/v), alcohol 0% (v/v), licoricidin 25 ppm) was “A (The bacterial count decreases to less than 10% of the bacterial count of the control group.)”, the Antimicrobial activity (Soy sauce, salt 0% (w/v), alcohol 0% (v/v), licoricidin 50 ppm) was “A (The bacterial count decreases to less than 10% of the bacterial count of the control group.)” and the Antimicrobial activity (Soy sauce, salt 0% (w/v), alcohol 5% (v/v), licoricidin 1 ppm) was “C (The bacterial count decreases to 50% or more and less than 100% of the bacterial count of control group.)”. The Antimicrobial activity (Soy sauce, salt 0% (w/v), alcohol 5% (v/v), licoricidin 5 ppm) was “B (The bacterial count decreases to 10% or more and less than 50% of the bacterial count of the control group.)”, the Antimicrobial activity (Soy sauce, salt 0% (w/v), alcohol 5% (v/v), licoricidin 10 ppm) was “B (The bacterial count decreases to 10% or more and less than 50% of the bacterial count of the control group.)” and the Antimicrobial activity (Soy sauce, salt 0% (w/v), alcohol 5% (v/v), licoricidin 25 ppm) was “A (The bacterial count decreases to less than 10% of the bacterial count of the control group.)”. For the same compound, the Antimicrobial activity (Soy sauce, salt 0% (w/v), alcohol 5% (v/v), licoricidin 50 ppm) was “A (The bacterial count decreases to less than 10% of the bacterial count of the control group.)”, the Antimicrobial activity (Soy sauce, salt 0% (w/v), alcohol 10% (v/v), licoricidin 1 ppm) was “C (The bacterial count decreases to 50% or more and less than 100% of the bacterial count of control group.)” and the Antimicrobial activity (Soy sauce, salt 0% (w/v), alcohol 10% (v/v), licoricidin 5 ppm) was “C (The bacterial count decreases to 50% or more and less than 100% of the bacterial count of control group.)”. The Antimicrobial activity (Soy sauce, salt 0% (w/v), alcohol 10% (v/v), licoricidin 10 ppm) was “C (The bacterial count decreases to 50% or more and less than 100% of the bacterial count of control group.)”, the Antimicrobial activity (Soy sauce, salt 0% (w/v), alcohol 10% (v/v), licoricidin 25 ppm) was “A (The bacterial count decreases to less than 10% of the bacterial count of the control group.)” and the Antimicrobial activity (Soy sauce, salt 0% (w/v), alcohol 10% (v/v), licoricidin 50 ppm) was “A (The bacterial count decreases to less than 10% of the bacterial count of the control group.)”. For the same compound, the Antimicrobial activity (Soy sauce, salt 4% (w/v), alcohol 0% (v/v), licoricidin 1 ppm) was “B (The bacterial count decreases to 10% or more and less than 50% of the bacterial count of the control group.)”, the Antimicrobial activity (Soy sauce, salt 4% (w/v), alcohol 0% (v/v), licoricidin 5 ppm) was “A (The bacterial count decreases to less than 10% of the bacterial count of the control group.)” and the Antimicrobial activity (Soy sauce, salt 4% (w/v), alcohol 0% (v/v), licoricidin 10 ppm) was “A (The bacterial count decreases to less than 10% of the bacterial count of the control group.)”. The Antimicrobial activity (Soy sauce, salt 4% (w/v), alcohol 0% (v/v), licoricidin 25 ppm) was “A (The bacterial count decreases to less than 10% of the bacterial count of the control group.)”, the Antimicrobial activity (Soy sauce, salt 4% (w/v), alcohol 0% (v/v), licoricidin 50 ppm) was “A (The bacterial count decreases to less than 10% of the bacterial count of the control group.)” and the Antimicrobial activity (Soy sauce, salt 4% (w/v), alcohol 5% (v/v), licoricidin 1 ppm) was “C (The bacterial count decreases to 50% or more and less than 100% of the bacterial count of control group.)”. The Antimicrobial activity (Soy sauce, salt 4% (w/v), alcohol 5% (v/v), licoricidin 5 ppm) was “A (The bacterial count decreases to less than 10% of the bacterial count of the control group.)”, the Antimicrobial activity (Soy sauce, salt 4% (w/v), alcohol 5% (v/v), licoricidin 10 ppm) was “A (The bacterial count decreases to less than 10% of the bacterial count of the control group.)” and the Antimicrobial activity (Soy sauce, salt 4% (w/v), alcohol 5% (v/v), licoricidin 25 ppm) was “A (The bacterial count decreases to less than 10% of the bacterial count of the control group.)”. For the same compound, the Antimicrobial activity (Soy sauce, salt 4% (w/v), alcohol 5% (v/v), licoricidin 50 ppm) was “A (The bacterial count decreases to less than 10% of the bacterial count of the control group.)”.
